# Results taken from paper PMC9331302.
# Test system: PnWRKY9 (Panax notoginseng)
# Test: EMSA
# Settings: LightShift Chemiluminescence EMSA kit (Pierce) standard procedure; pH and temperature not stated; recombinant protein; protein details: N-terminal His-tag (pET32a)
sequence,measurement,value
GAGTCTAAGGAGATGGTTGGATAATTGGGTGACCGATCGGAACTTGTTG (double strand) [PPnDEFL1 mutant W-box probe],binding result,no binding

# For at least one entry, the source does not settle the construct or the ends of the probe. Negatives hold for the conditions tested.
